## Screening data, single-dose tests

Amino acid sequences for entries named in this document (tags omitted). Residues count along the entry.
UniProt P9WNZ1, whole entry: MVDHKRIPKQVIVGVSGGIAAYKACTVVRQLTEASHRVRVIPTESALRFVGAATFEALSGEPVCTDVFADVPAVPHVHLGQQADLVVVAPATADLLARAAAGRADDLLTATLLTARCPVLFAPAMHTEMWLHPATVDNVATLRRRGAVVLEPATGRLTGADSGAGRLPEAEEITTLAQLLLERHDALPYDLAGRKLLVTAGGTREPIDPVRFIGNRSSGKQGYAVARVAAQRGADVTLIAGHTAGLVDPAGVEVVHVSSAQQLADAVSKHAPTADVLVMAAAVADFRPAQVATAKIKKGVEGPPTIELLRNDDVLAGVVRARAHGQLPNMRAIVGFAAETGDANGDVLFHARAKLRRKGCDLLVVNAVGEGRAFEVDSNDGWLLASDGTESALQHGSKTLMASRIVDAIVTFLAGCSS
UniProt P9WFT3, whole entry: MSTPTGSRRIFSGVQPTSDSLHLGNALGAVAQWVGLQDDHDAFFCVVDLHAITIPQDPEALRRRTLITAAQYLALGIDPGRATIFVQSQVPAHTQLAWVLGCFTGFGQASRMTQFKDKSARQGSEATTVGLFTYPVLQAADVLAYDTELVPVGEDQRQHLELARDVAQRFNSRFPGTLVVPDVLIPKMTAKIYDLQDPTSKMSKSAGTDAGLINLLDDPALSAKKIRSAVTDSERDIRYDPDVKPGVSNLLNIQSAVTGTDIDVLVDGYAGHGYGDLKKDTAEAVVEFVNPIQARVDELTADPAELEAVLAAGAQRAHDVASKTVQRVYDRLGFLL
UniProt A4I591, 1-473: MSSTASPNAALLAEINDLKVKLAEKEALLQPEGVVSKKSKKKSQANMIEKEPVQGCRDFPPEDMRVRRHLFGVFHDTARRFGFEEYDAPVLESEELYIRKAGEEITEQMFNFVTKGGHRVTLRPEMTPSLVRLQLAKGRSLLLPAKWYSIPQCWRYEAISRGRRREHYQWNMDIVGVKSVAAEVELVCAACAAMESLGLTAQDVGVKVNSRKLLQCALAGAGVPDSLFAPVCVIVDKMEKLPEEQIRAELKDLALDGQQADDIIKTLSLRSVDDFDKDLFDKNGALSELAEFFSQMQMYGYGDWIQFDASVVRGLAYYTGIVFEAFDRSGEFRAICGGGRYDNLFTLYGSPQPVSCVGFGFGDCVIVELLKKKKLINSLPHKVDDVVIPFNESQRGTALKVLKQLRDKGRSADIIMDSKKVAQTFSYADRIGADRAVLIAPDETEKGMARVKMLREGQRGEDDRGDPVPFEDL

Measurements from “University of Dundee, Small-Polar-MMV Screening Library” (2021), ChEMBL document CHEMBL3988442.

Results are given as percent effect. The controls that fix the scale are not given in the record; negative values are as filed. Compounds were drawn at random from those tested, without regard to their results. Two or more numbers in one place are separate tests of the same structure; such repeats can differ widely. A dash means the value is not listed here; it may have been measured.

CoaBC: 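Enzyme assay of CoaBC with a phosphate dye (Biomol Green) read at 650 nm. Target: Coenzyme A biosynthesis protein CoaBC, Mycobacterium tuberculosis (UniProt P9WNZ1). Concentration: 30 µM. Higher reads as stronger inhibition, judged from the few compounds that gave an IC50. Most strong results did not repeat in a second test. About 67,000 compounds were tested under these conditions; 0.06% (about 40) showed 50% or more at least once.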
Toxoplasma: 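Assay of Toxoplasma gondii numbers, read through their beta-galactosidase reporter with a colour substrate. Concentration: 10 µM. Higher reads as fewer parasites (inferred from which compounds were picked for retests). Of about 67,000 compounds tested this way, about 260 (0.38%) reached 50% or more in at least one test.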
Leishmania in macrophages: 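Cell assay of Leishmania donovani living inside macrophages; the read-out is not stated. Concentration: 30 µM. The record gives no direction; compounds that gave an IC50 in retests scored well above the rest, so higher reads as stronger inhibition. About 69,000 compounds were tested under these conditions; 1.5% (about 1,000) showed 50% or more at least once.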
MtTrpRS: 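Enzyme assay of tryptophanyl-tRNA synthetase; the read-out is not stated. Target: Tryptophan-tRNA ligase, Mycobacterium tuberculosis (UniProt P9WFT3). Tested at 10 µM. Higher most likely means stronger inhibition; the record gives no direction and few retests gave an IC50. Of about 65,000 compounds tested this way, about 64 (0.098%) reached 50% or more in at least one test.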
LiHisRS: 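Enzyme assay of histidyl-tRNA synthetase; the read-out is not stated. Target: Histidine-tRNA ligase, Leishmania infantum (UniProt A4I591). Concentration: 30 µM. The record gives no direction; compounds that gave an IC50 in retests scored well above the rest, so higher reads as stronger inhibition. The assay is labelled LdHisRS but filed under L. infantum. About 69,000 compounds were tested under these conditions; 0.6% (about 410) showed 50% or more at least once.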

Compound	CoaBC	Toxoplasma	Leishmania in macrophages	MtTrpRS	LiHisRS
c1cncc(N2CCOCC3(CN(Cc4cccs4)CCO3)C2)c1 (centres unmarked)	-3	-	-	12.2	6
CN(Cc1cnn(C)c1)Cc1nc(Cc2cccc(Cl)c2)no1	3.205	-1.264	-18.23	0.7936	9.589
O=C(CCNC(=O)c1sccc1-c1ccccc1)NC1CCS(=O)(=O)C1 (centres unmarked)	1.775	-8.343	-9.728	3.786	18.18
CC(C)Oc1ncccc1CNC(=O)NC1CCOc2ccccc21 (centres unmarked)	3.193	-9.535	-14.25	17.68	15.18
CC(Cn1cccn1)NCc1csc(COc2ccc(F)cc2)n1 (centres unmarked)	-3.609	10.22	39.79	-1.412	11.4
Cc1ccc2nc(C)cc(NCCNS(=O)(=O)c3cccnc3)c2c1	6.012	8.099	-29.07	1.302	-1.418
CCc1cc(CN(C)C(=O)C2CC(=O)N(c3cccc(O)c3)C2)on1 (centres unmarked)	2.292	-5.677	-49.09	0.6522	13.6
Cc1n[nH]c(C)c1CNc1nc(-c2ccco2)nc2c1CCNCC2	-34.22	-6.639	-14.84	10.01	14.71
COC(=O)CN(C(=O)c1cc(C(C)C)no1)c1cccc(F)c1	-10.61	4.593	-11.88	0.9238	9.89
Cc1ncsc1COC(=O)c1cccc2c1OCCO2	4.854	-12.65	-12.84	-4.542	5.882
CCC(C)N1CCc2nc(N3CCCC3)nc(NC(C)C)c2C1 (centres unmarked)	-8.261	-21.89	35.6	-13.92	5.556
CCOC(=O)CCNC(=O)c1cccc2ccc(C)nc12	-3.365	-1.1	8.241	1.598	16.67
CCC1CN(C(=O)c2cnc(-c3cnn(C)c3)s2)CCO1 (centres unmarked)	4.622	-6.479	33.49	-6.69	9.402
O=C(O)C(F)(F)F.[H][C@]12CCC[C@@]1(COCc1cccnc1)CN(C(=O)c1ncccn1)C2	-	-5.959	-13.38	-	-
Cc1c(C2SCC(=O)Nc3c2c(O)nn3C(C)C)cnn1C (centres unmarked)	1.519	6.54	20.42 and -6.766	-6.476	23.68
O=C1CC2(CCN(CC3CC3)C2)CN1c1cccc(F)c1 (centres unmarked)	3.965	-	-	-1.174	13.21
Cn1nccc1C(=O)N1CCCC2(CCN(c3ccsc3)C2=O)C1 (centres unmarked)	-2.397	-7.38	-17.76	-2.434	14.04
CCCc1cc(=O)[nH]c2nnc(SCC(N)=O)n12	-1.373	-6.833	-15.23	-4.691	0
O=C(O)C(F)(F)F.[H][C@@]12OCCN(C(=O)C3CCOCC3)[C@@]1([H])CC[C@H]2Oc1ccccn1	-	-4.402	11.08	-	-
O=S(=O)(NC1=NCN(CCc2cccs2)CN1)c1ccc(F)cc1	9.287	-2.989	22.03	-1.206	9.709
Fc1ccc(Cc2cccc(C3CCN(C4CCOCC4)CC3)n2)cc1	1.211	10.06	-10.36 and 5.706	-	14.43
CCCn1c(NCCc2ccccc2)nc2c(C)nn(C)c2c1=O	-1.848	74.28	-105.9	1.036	15.52
[H][C@]12CC[C@]([H])(CN(c3ncccn3)C1)N(Cc1ccc(S(C)(=O)=O)cc1)C2	-	13.04	-9.056	-	-
Cc1nc(N2CCCC2)nc2c1CCN(C(=O)NC(C)C)CC2	3.759	6.328	27.39	-5.118	10.26
Cc1ccn(CCC(=O)N2CCOC(c3nc(-c4cccs4)no3)C2)n1 (centres unmarked)	4.581	-0.8856	-0.1913	0.25	11.43
Cc1cc(SCC(N)=O)nc(-c2cccc(F)c2)n1	-2.123	6.989	12.31	-5.389	12.09
Cc1cnc2[nH]c(C(F)(F)F)c(CN3CCCC(CO)C3)c2c1 (centres unmarked)	29.57 and 17.01	10.07	-14.54	-3.039	1.418
Fc1cnc(N2CCC3(CC2)CC(OCc2cccnc2)CO3)nc1 (centres unmarked)	6.131	-	-	0.3524	8.772
COC(=O)C(C)(C)NC(=O)C1CC(=O)N(CC(F)(F)F)C1 (centres unmarked)	7.916	-2.364	29.5	7.244	13.83
Fc1ccc(CN2CCCC3(COCCN(Cc4c[nH]nn4)C3)C2)cc1 (centres unmarked)	1.303	-	-	1.627	8.571
CCC(=O)N1CCC(c2cncc(Oc3cccnc3)n2)CC1	2.906	14.35	2.899 and 4.645	-	18.56
CCc1nccn1CCC(=O)N1CC[C@@H](c2ccc(F)cc2)[C@H](O)C1	0.6424	-8.546	-5.158	-0.5942	5
CN1CCN(S(=O)(=O)c2cccc(C#N)c2)c2ccc(F)cc21	-5.703	-0.1763	19.51	-0.892	2.941
O=C(CNC(=O)C1(c2ccc(F)cc2F)CCC1)Nc1cccnc1	-30.21	7.555	-11.9	-2.184	16.85
[H][C@]12CN(C(=O)COC3CCCC3)C[C@@]1([H])OCCN(S(C)(=O)=O)C2	-	-0.9278	-4.71	-	-
COc1cccc(N2CCN(C(=O)C(OC)c3ccccc3)CC2=O)c1 (centres unmarked)	9.895	2.469	-7.092	-3.462	11.32
Cc1ccc2c(c1)C1(CCNCC1)CN2C(=O)C(C)C	1.523	9.42	17.68	0.08231	17.65
[H][C@@]12CN(c3nnc(C)s3)C[C@H](C(=O)NCCOC)[C@]1([H])CCO2	-	2.163	15.75	-	-
[H][C@@]12COC[C@@H](Cc3nnc(C)o3)[C@]1([H])CN(C(=O)C1=CCCC1)C2	-	-1.543	30.07	-	-
O=C(NCCCNc1ccccc1)c1scnc1Cl	4.563	-0.6303	4.753	-1.943	9.459
c1ccc(-n2ccc(CN3CCCCC3Cn3cncn3)n2)cc1 (centres unmarked)	3.584	-1.291	26.56	-7.687	7.692
CCC(C)N(Cc1cnc(NCC(=O)O)nc1)Cc1ccsc1 (centres unmarked)	2.033	14.48	18.98	-2.807	9.836
CN1CCC(NC(=O)Nc2ccc(F)c(-n3cccc3)c2)C1=O (centres unmarked)	0.4831	-16.53	20.44	-2.364	17.17
CN1CC(=O)N(c2ccsc2)CC12CCN(C(=O)Nc1ccccc1)C2.O=C(O)C(F)(F)F (centres unmarked)	-	-6.882	18.69	-	-
Cc1nnc(C(C)NCC2(c3ccc(F)cc3)CCCCC2)o1 (centres unmarked)	-2.755	13.81	20.03	8.118	16.33
O=S(=O)(Cc1ccccc1)NC[C@H]1Cn2ccnc2CO1	5.519	5.803	7.799	10.24	25.68
COc1ccc(OC2CCN(C(=O)CCc3nc(Cl)n[nH]3)CC2)cc1	7.006	1.093	16.93	1.926	9.735
COCC(=O)N1CCC2(CC1)C(=O)N(Cc1cccnc1)CCN2C	-3.475	-	-	9.738	-1.923
CCC1=N[C@@]2(CC[C@@H]3CN(CC4CC4)C[C@@H]32)C(=O)N1CC1CC1	3.008	-	-	-1.798	20.51

5 of the entries, repeated:

- Cc1nc(N2CCCC2)nc2c1CCN(C(=O)NC(C)C)CC2 : CoaBC: 3.759%; Toxoplasma: 6.328%; Leishmania in macrophages: 27.39%; MtTrpRS: -5.118%; LiHisRS: 10.26%
- Cc1ccc2c(c1)C1(CCNCC1)CN2C(=O)C(C)C : CoaBC: 1.523%; Toxoplasma: 9.42%; Leishmania in macrophages: 17.68%; MtTrpRS: 0.08231%; LiHisRS: 17.65%
- CN1CCN(S(=O)(=O)c2cccc(C#N)c2)c2ccc(F)cc21 : CoaBC: -5.703%; Toxoplasma: -0.1763%; Leishmania in macrophages: 19.51%; MtTrpRS: -0.892%; LiHisRS: 2.941%
- O=C(CCNC(=O)c1sccc1-c1ccccc1)NC1CCS(=O)(=O)C1 (centres unmarked) : CoaBC: 1.775%; Toxoplasma: -8.343%; Leishmania in macrophages: -9.728%; MtTrpRS: 3.786%; LiHisRS: 18.18%
- c1cncc(N2CCOCC3(CN(Cc4cccs4)CCO3)C2)c1 (centres unmarked) : CoaBC: -3%; MtTrpRS: 12.2%; LiHisRS: 6%